{"source": "PubChem BioAssay AID1224830 (NIAID, 2016)", "assay": "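Regulators of TLR4 signalling towards TNF-alpha in macrophage-like cells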 (primary screen)", "cell system": "human THP-1 monocytic leukaemia cells, TNF dual-luciferase reporter clone, PMA-differentiated to macrophage-like cells", "reagent": "siRNA pool against human genes, 50 nM", "timing": "LPS for 4 h, given about 3 days after siRNA transfection", "challenge": "bacterial LPS (TLR4 ligand), 10 ng/ml", "measurement": "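Ratio of firefly to renilla light, scaled to the plate median and expressed as a robust z-score per replicate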", "scale": "TNF reporter robust z-score: higher = stronger TNF reporter response to LPS", "active means": "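a well is active when its z-score exceeds 2.8 or falls below -1.5; control wells carry no call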", "note": "Shown is a random part of about 18,000 reagents. Over the whole deposit, about 2,900 (16%) were called active. 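Calls are made per well; low scores hint the gene aids the LPS response, high scores that it dampens it.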 Repeated entries: four replicate wells of each siRNA pool."}
{"Gene": "STYK1 (STY kinase 1)", "TNF reporter robust z-score": -0.77, "outcome": "inactive"}
{"Gene": "STYK1 (STY kinase 1)", "TNF reporter robust z-score": 0, "outcome": "inactive"}
{"Gene": "STYK1 (STY kinase 1)", "TNF reporter robust z-score": 1.19, "outcome": "inactive"}
{"Gene": "STYK1 (STY kinase 1)", "TNF reporter robust z-score": 0.38, "outcome": "inactive"}
{"Gene": "CAPN13 (calpain 13)", "TNF reporter robust z-score": 0.09, "outcome": "inactive"}
{"Gene": "CAPN13 (calpain 13)", "TNF reporter robust z-score": 0.71, "outcome": "inactive"}
{"Gene": "CAPN13 (calpain 13)", "TNF reporter robust z-score": 0.33, "outcome": "inactive"}
{"Gene": "CAPN13 (calpain 13)", "TNF reporter robust z-score": 0.36, "outcome": "inactive"}
{"Gene": "ZNF770 (zinc finger protein 770)", "TNF reporter robust z-score": -1.26, "outcome": "inactive"}
{"Gene": "ZNF770 (zinc finger protein 770)", "TNF reporter robust z-score": -1.52, "outcome": "active"}
{"Gene": "ZNF770 (zinc finger protein 770)", "TNF reporter robust z-score": -1.43, "outcome": "inactive"}
{"Gene": "TPPP (tubulin polymerization promoting protein)", "TNF reporter robust z-score": 0.4, "outcome": "inactive"}
{"Gene": "TPPP (tubulin polymerization promoting protein)", "TNF reporter robust z-score": -0.84, "outcome": "inactive"}
{"Gene": "TPPP (tubulin polymerization promoting protein)", "TNF reporter robust z-score": -0.55, "outcome": "inactive"}
{"Gene": "TPPP (tubulin polymerization promoting protein)", "TNF reporter robust z-score": -0.44, "outcome": "inactive"}
{"Gene": "RAB33A (RAB33A, member RAS oncogene family)", "TNF reporter robust z-score": -0.04, "outcome": "inactive"}
{"Gene": "RAB33A (RAB33A, member RAS oncogene family)", "TNF reporter robust z-score": 0.22, "outcome": "inactive"}
{"Gene": "RAB33A (RAB33A, member RAS oncogene family)", "TNF reporter robust z-score": 1.01, "outcome": "inactive"}
{"Gene": "PPP1R3D (protein phosphatase 1 regulatory subunit 3D)", "TNF reporter robust z-score": -0.31, "outcome": "inactive"}
{"Gene": "PPP1R3D (protein phosphatase 1 regulatory subunit 3D)", "TNF reporter robust z-score": -0.36, "outcome": "inactive"}
{"Gene": "PPP1R3D (protein phosphatase 1 regulatory subunit 3D)", "TNF reporter robust z-score": -0.54, "outcome": "inactive"}
{"Gene": "PPP1R3D (protein phosphatase 1 regulatory subunit 3D)", "TNF reporter robust z-score": -0.89, "outcome": "inactive"}
{"Gene": "H3C1 (H3 clustered histone 1)", "TNF reporter robust z-score": 1.64, "outcome": "inactive"}
{"Gene": "H3C1 (H3 clustered histone 1)", "TNF reporter robust z-score": 0.31, "outcome": "inactive"}
{"Gene": "H3C1 (H3 clustered histone 1)", "TNF reporter robust z-score": -0.18, "outcome": "inactive"}
{"Gene": "H3C1 (H3 clustered histone 1)", "TNF reporter robust z-score": 3.67, "outcome": "active"}
{"Gene": "TMOD3 (tropomodulin 3)", "TNF reporter robust z-score": -0.19, "outcome": "inactive"}
{"Gene": "TMOD3 (tropomodulin 3)", "TNF reporter robust z-score": 0.61, "outcome": "inactive"}
{"Gene": "TMOD3 (tropomodulin 3)", "TNF reporter robust z-score": 0.45, "outcome": "inactive"}
{"Gene": "TMOD3 (tropomodulin 3)", "TNF reporter robust z-score": 0.21, "outcome": "inactive"}
{"Gene": "SNTG1 (syntrophin gamma 1)", "TNF reporter robust z-score": -1.09, "outcome": "inactive"}
{"Gene": "SNTG1 (syntrophin gamma 1)", "TNF reporter robust z-score": -1.01, "outcome": "inactive"}
{"Gene": "SNTG1 (syntrophin gamma 1)", "TNF reporter robust z-score": -0.44, "outcome": "inactive"}
{"Gene": "SNTG1 (syntrophin gamma 1)", "TNF reporter robust z-score": 0.13, "outcome": "inactive"}

Reformatted: entries from further up
Gene | TNF reporter robust z-score | outcome
H3C1 (H3 clustered histone 1) | 0.31 | inactive
H3C1 (H3 clustered histone 1) | -0.18 | inactive
